From publication PMC10591015 come the findings set out here.

Chains of the proteins cited; added tags and fusions are not shown. Lines headed by an entry give the natural chain unless they say otherwise; changes in a name come on top. A line that says so, or that is headed by a name, gives the form on record, which may keep a tag or linker.
flag-tagged mouse NELFB WT (in MEFs) (Q8C4Y3, form named): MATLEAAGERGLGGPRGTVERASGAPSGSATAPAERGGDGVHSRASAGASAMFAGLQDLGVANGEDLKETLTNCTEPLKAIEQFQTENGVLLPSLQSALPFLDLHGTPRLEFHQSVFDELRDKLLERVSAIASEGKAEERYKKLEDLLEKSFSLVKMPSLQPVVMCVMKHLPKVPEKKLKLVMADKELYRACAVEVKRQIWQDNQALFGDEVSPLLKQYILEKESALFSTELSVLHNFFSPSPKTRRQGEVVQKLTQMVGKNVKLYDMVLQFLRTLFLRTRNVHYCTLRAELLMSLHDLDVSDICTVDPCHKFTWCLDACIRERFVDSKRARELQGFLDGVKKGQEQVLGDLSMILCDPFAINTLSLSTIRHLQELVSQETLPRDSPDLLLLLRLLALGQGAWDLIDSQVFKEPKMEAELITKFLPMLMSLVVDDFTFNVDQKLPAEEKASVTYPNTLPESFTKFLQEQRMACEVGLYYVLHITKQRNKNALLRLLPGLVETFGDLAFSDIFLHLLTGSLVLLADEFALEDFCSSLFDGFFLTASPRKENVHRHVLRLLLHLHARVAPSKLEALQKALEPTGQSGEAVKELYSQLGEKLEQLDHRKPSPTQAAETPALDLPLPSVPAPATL
UniProt P19426: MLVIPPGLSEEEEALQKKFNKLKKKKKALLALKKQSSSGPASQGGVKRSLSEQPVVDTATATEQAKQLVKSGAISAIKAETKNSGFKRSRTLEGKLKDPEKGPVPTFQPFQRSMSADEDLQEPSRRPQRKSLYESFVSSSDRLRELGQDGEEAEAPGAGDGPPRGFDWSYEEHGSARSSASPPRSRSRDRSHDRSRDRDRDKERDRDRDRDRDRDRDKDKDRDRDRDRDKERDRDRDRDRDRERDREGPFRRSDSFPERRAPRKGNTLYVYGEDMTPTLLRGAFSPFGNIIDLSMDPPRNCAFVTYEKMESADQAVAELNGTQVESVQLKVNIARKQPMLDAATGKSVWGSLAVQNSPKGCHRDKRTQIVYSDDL
UniProt Q922L6: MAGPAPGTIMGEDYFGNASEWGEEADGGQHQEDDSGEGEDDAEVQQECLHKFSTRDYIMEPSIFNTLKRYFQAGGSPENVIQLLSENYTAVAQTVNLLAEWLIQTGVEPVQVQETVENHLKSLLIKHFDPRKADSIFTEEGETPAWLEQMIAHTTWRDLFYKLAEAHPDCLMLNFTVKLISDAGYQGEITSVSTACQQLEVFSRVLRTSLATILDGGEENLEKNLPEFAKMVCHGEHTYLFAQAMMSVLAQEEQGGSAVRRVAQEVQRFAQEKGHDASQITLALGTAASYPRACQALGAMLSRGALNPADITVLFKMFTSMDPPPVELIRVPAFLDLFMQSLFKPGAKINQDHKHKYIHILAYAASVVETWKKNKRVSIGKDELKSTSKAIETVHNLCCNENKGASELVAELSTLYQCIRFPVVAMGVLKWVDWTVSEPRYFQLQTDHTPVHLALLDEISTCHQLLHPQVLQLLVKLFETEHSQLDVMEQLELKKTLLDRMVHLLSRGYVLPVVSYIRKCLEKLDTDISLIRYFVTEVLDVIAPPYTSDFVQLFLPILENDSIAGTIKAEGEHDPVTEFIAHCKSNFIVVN
UniProt Q8BG30: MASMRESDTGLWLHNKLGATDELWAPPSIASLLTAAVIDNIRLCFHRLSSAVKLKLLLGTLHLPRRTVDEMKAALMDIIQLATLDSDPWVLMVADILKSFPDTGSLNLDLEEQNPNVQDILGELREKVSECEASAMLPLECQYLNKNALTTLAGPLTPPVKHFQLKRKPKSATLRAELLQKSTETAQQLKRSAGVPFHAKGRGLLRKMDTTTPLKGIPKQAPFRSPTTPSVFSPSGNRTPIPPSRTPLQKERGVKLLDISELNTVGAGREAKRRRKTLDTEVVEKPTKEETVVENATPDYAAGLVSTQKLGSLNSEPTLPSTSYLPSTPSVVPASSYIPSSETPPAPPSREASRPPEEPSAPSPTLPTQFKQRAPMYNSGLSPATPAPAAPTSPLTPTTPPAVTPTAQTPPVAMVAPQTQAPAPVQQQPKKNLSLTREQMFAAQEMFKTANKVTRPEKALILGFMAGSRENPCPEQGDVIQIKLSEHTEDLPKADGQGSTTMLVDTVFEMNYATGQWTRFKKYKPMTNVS

Results are given in words; binding and its absence hold for the method and conditions named. In cells and extracts the contact can be indirect. Some binding calls cover weakened binding; strength is not graded here.

The target of the test is flag-tagged mouse NELFB WT (in MEFs) (mouse) (UniProt Q8C4Y3). The test can be described thus: co-IP; MEFs with flag-tagged mouse NELFB WT or mutants; whole-cell lysate in NP-40 lysis buffer, flag M2 magnetic agarose beads at 4 °C overnight, elution with 3x flag peptide, Western blotting of NELF subunits. (In western blotting, separated proteins are transferred to a membrane and probed.)
Turning to “NELFE (endogenous, MEFs) (from UniProt P19426 1-375)”, the binding result is on record as “binds”.

For “NELFC (endogenous, MEFs) (from UniProt Q922L6 1-591)”, the binding entry is “binds”.

Turning to “NELFA (endogenous, MEFs) (from UniProt Q8BG30 1-530)”, the binding entry was “binds”.
